Measurements: patent publication US20260070976A1
Substitutions are numbered along the chain they refer to. No constants are given. Whether binding was seen depends on the method and setting. Some binding calls cover weakened binding; strength is not graded here.

Chains of the proteins cited; added tags and fusions are not shown. Lines headed by an entry give the natural chain unless they say otherwise; changes in a name come on top.
UniProt Q9UKJ1: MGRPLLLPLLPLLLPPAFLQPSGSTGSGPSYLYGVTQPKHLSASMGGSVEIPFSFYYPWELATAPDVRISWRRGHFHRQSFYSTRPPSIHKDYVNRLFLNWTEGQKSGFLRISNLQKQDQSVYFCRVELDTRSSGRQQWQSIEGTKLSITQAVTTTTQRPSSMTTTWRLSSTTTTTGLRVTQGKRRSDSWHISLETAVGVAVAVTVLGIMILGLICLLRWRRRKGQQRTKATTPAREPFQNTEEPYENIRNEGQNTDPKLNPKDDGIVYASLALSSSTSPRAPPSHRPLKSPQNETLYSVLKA

B1: X14 (antibody, human IgG4, V domains shown)
VH: QVQLVQSGAEVKKPGSSVKVSCKASGYNFLHYDVNWVRQAPGQGLEWMGGIIPIFGTANYAQKFQGRVTITADESTSTAYMELSSLRSEDTAVYYCATAVGAGWFDTWGQGTLVTVSS
VL: DIVMTQSPDSLAVSLGERATINCKSSQSVYFSPNNKNYLAWYQQKPGQPPKLLIYWASTRESGVPDRFSGSGSGTDFTLTISSLQAEDVAVYYCQQYFEEPYTFGQGTRLEIK
B2: X18 (antibody, human IgG4, V domains shown)
VH: B1 VH
VL: B1 VL with Y30W, S32D
B3: X20 (antibody, human IgG4, V domains shown)
VH: B1 VH with T107P
VL: B1 VL with P33E, F98Y
B4: X11 (antibody, human IgG4, V domains shown)
VH: B1 VH with H31N, A99G, T107P
VL: B1 VL with P33E, F98Y
B5: X7 (antibody, human IgG4, V domains shown)
VH: B1 VH with H31N, A99G, T107P
VL: B1 VL with Y30F, S32D, P33E

What follows are binders tested against cell surface PILRA on human monocytes (human) (UniProt Q9UKJ1) (assay: Binding on hu mono (human monocytes), flow cytometry; summary cell).

Row | Binder | binding
1 | B1 | binds
2 | B2 | binds
3 | B3 | binds
4 | B4 | binds
5 | B5 | binds

The binders below were run against cell surface PILRA on human monocytes (human) (UniProt Q9UKJ1) (assay: flow cytometry, antibody at 1 µg/mL on human monocytes (FIG. 1C)).

Row | Binder | binding
6 | B2 | binds
7 | B4 | binds

The binders below were run against cell surface PILRA on human monocytes (human) (UniProt Q9UKJ1) (assay: flow cytometry; Alexa Fluor 647-conjugated antibody at 1 ug/mL on human monocytes).

Row | Binder | binding
8 | B2 | binds
9 | B4 | binds

The binders below were run against cell surface PILRA on human monocytes (human) (UniProt Q9UKJ1) (assay: flow cytometry; Alexa Fluor 647-conjugated antibody on human CD14+ monocytes (second donor sample), Fc receptors blocked, 30 min on ice).

Row | Binder | binding
10 | B2 | binds
11 | B4 | binds

These binders were tested against cell surface PILRA on human monocytes (human) (UniProt Q9UKJ1) (assay: flow cytometry; Alexa Fluor 647-conjugated antibody on human CD14+ monocytes, Fc receptors blocked, 30 min on ice).

Row | Binder | binding
12 | B1 | binds
13 | B2 | binds
14 | B3 | binds
15 | B4 | binds
16 | B5 | binds

The binders below were run against cell surface PILRA on human monocytes (human) (UniProt Q9UKJ1) (assay: flow cytometry, Alexa Fluor 647-conjugated antibody on human monocytes).

Row | Binder | binding
17 | B1 | binds
18 | B2 | binds
19 | B3 | binds
20 | B4 | binds
21 | B5 | binds
